# Values quoted from earlier work as cited in patent US20080262084A1, “Stable Emulsion Compositions for Intravenous Administration Having Preservatie Efficacy” (priority 2004, published 2008).
# At least one compound was matched to its structure with a doubt left.
# Settings: cited from earlier work
smiles,measurement,value
CCCCCCCCCCCC(=O)OCC(O)CO (stereo not shown) [Monolaurin],HLB value,less than 10
